Experimental data reported in PubChem BioAssay AID2685 (National Center for Advancing Translational Sciences (NCATS), 2010).
This is one part of the list. The main result of the screen is listed elsewhere. These columns were measured beside it and carry no call. Compounds called inactive in the main read-out are mostly missing here. Potencies come from curve fits of mixed quality, noted in brackets.

Test: qHTS Assay for Lipid Storage Modulators in Drosophila S3 Cells;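 on cell number change: cells counted by Cell Tracker Red CMTPX staining in the red channel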
Details: BODIPY lipid droplet fluorescence, 18-24 h; for cell number change: measured here: cell count max response, cells fed with added oleic acid
Method in brief: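 Drosophila S3 cells got compounds at several concentrations plus oleic acid (400 uM solution). Laser-scanning cytometry with 488 nm excitation read lipid droplets at 500-530 nm and cells at 575-640 nm. Percent activity was relative to 20 uM Triacsin C.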

[1] = measured here: cell number channel AC50, cells fed with added oleic acid
[2] = measured here: lipid fluorescence (Fed channel) AC50, cells fed with added oleic acid

SMILES | cell number change [%] | AC50 [1] | AC50 [2]
CCOC(=O)c1c(-c2ccc3ccccc3c2)csc1NC(=O)CCCC(=O)O | -32.4 | 0.651 µM [falling, full curve, poor fit] | –
CCOc1cc(N(CC)CC)ccc1/C=C(/C#N)c1nc2ccccc2[nH]1 | -93.8 | 2.59 µM [falling, partial curve] | 0.259 µM [falling, full curve]
Cc1cccc(NC(=S)NC2CC3CCC(C2)N3Cc2ccco2)c1 (centres undefined) | -21.7 | 0.0731 µM [falling, full curve, poor fit] | –
Cc1cc(C)cc(N(CCC#N)C(=O)COC(=O)CCc2c[nH]c3ccccc23)c1 | -9.33 | – | –
COCCCNC(=O)/C=C/c1cccc(Cl)c1 | -76.7 | 29.1 µM [falling, single point] | –
COc1ccc(-c2nnc(SC(C)C(=O)NCc3ccc4c(c3)OCO4)n2Cc2ccco2)cc1 (centres undefined) | 63.3 | 6.51 µM [rising, partial curve] | 10.3 µM [rising, partial curve, poor fit]
COc1ccc(-c2nn(-c3ccccc3)cc2C(=O)N2c3ccc(C)cc3C3CN(C)CCC32)cc1 (centres undefined) | 56 | – | 18.4 µM [rising, partial curve, poor fit]
Cn1c(CCN2CCN(c3ccccn3)CC2)nc2cc(NC(=O)COc3ccc(Cl)cc3)ccc21 | 20.2 | 2.59 µM [rising, partial curve] | 1.3 µM [rising, full curve]
COc1ccccc1C(=O)OCC(=O)N1CCC(Cc2ccccc2)CC1 | -6.77 | – | –
CC(C(=O)Nc1ccncc1)(c1ccccc1)c1ccccc1 | 7.96 | – | –
Cc1ccc(OCCC(=O)OCC(=O)Nc2ccc(N3CCOCC3)cc2)cc1 | – | – | 2.31 µM [falling, partial curve]
Cc1ccc(C(=O)COC(=O)CNC(=O)CNC(=O)c2ccc(C)cc2)cc1 | -66.7 | 29.1 µM [falling, single point] | –
COc1ccc(C(=O)/C=C2/C(=O)Nc3ccccc32)cc1 | -37.6 | 14.6 µM [falling, single point] | 20.6 µM [falling, partial curve]
Cc1occc1C(=O)/C(C#N)=C/c1ccc(O)c(Br)c1 | -39 | 16.4 µM [falling, single point] | –
Cc1ccsc1/C=C/C(=O)O | -32.9 | – | 58 µM [falling, partial curve, poor fit]
CC(OC(=O)CCc1cc(C(C)(C)C)c(O)c(C(C)(C)C)c1)C(=O)NC1CC1 (centres undefined) | 54.5 | 16.4 µM [rising, partial curve] | –
Cc1ccc[n+](CC(=O)c2ccc(-c3ccccc3)cc2)c1 | 16.4 | 6.51 µM [falling, single point] | –
CCC1(CC)NC(=O)N(CC(=O)N2CCN(c3ccccc3F)CC2)C1=O | 3.74 | – | 0.517 µM [rising, full curve]
COc1ccccc1C(=O)NC(=S)Nc1cccnc1Cl | 19.2 | – | –

SMILES | cell number change [%] | AC50 [1] | AC50 [2]
Cc1sc2ncnc(OCC(=O)N3CCN(C(=O)c4ccco4)CC3)c2c1C | 27.5 | – | –
CCOc1cc(C(=O)N2CCC(CC3CC(c4cccc(Br)c4)=NO3)(C(=O)NCC3CCCCC3)CC2)cc(OCC)c1OCC (centres undefined) | – | – | 4.11 µM [falling, full curve]
CC1Cc2ccccc2N1C(=O)COC(=O)/C=C/c1ccc(F)cc1 (centres undefined) | -5.1 | 0.461 µM [rising, single point] | 8.2 µM [falling, partial curve]
CCOC(=O)CN1C(=O)N(CC(=O)OCC)C(c2ccccc2)(c2ccccc2)C1=O | 23.6 | – | 29.1 µM [rising, single point]
COc1cc(NC(=O)N[C@@H](CCSC)C(=O)O)cc(OC)c1 | -37.9 | 6.51 µM [falling, full curve, poor fit] | 4.11 µM [falling, full curve]
CCOc1ccc(CCNC(=O)C(C)n2nc(C)n3c(cc4occc43)c2=O)cc1OCC (centres undefined) | -10.2 | – | 0.231 µM [rising, partial curve]
COc1cccc(NC(=O)CSc2nnc(COc3ccc4c(c3)CCCC4)o2)c1 | 47.2 | 20.6 µM [rising, single point] | 1.3 µM [rising, single point]
Cc1ccc(C)c(N2CCN(CCCc3ccccc3)CC2)c1 | -41.4 | 20.6 µM [falling, single point] | 16.4 µM [falling, partial curve]
Cc1cc(Nc2cc(Cl)cc(Cl)c2)nc(N)n1 | -53.7 | 20.6 µM [falling, single point] | 20.6 µM [falling, single point]
COC(=O)c1c(-c2c(Cl)cccc2Cl)noc1NC(=O)NN1CCCCC1 | -61.1 | 14.6 µM [falling, partial curve, poor fit] | –
COc1ccc(CNC(=O)COC(=O)c2ccc(C)c(S(=O)(=O)N3CCOCC3)c2)cc1OC | -43.1 | 14.6 µM [falling, partial curve] | 7.31 µM [falling, partial curve]
O=C(Nc1ccc(OC(F)(F)F)cc1)c1cnc2n(c1=O)CCS2 | 60.4 | 13 µM [rising, partial curve] | 13 µM [rising, partial curve]
O=C(COc1ncnc2ccccc12)NCCCN1CCCC1=O | -14.9 | – | 0.116 µM [falling, full curve]
COc1cc(NC(=S)NCCc2ccc(S(N)(=O)=O)cc2)c(OC)cc1Cl | -22 | – | 0.794 µM [falling, full curve]
CN1C(=O)/C(=C/c2ccccc2OCc2ccccc2)NC1=S | -14.3 | – | 4.61 µM [falling, full curve, poor fit]
CCCC(=O)Nc1ccccc1NC(=O)CN(C)S(=O)(=O)c1ccccc1 | – | 5.8 µM [falling, partial curve] | 4.11 µM [falling, partial curve]
CCCN(CCC)Cc1c(C(=O)N/N=C/C(C)=C\c2ccccc2)nnn1-c1nonc1N | 30 | – | –
O=C(Nc1cnn(Cc2ccccc2)c1)NC12CC3CC(CC(C3)C1)C2 | -48.8 | 29.1 µM [falling, partial curve, poor fit] | –
CC1(C)CC(C)(O)P(=O)(c2ccccc2)O1 (centres undefined) | -206 | 6.51 µM [falling, partial curve] | 5.8 µM [falling, full curve]

Among those listed so far, 3 contain fluorine.
SMILES | cell number change [%] | AC50 [1] | AC50 [2]
CCC1(CC)NC(=O)N(CC(=O)N2CCN(c3ccccc3F)CC2)C1=O | 3.74 | – | 0.517 µM [rising, full curve]
CC1Cc2ccccc2N1C(=O)COC(=O)/C=C/c1ccc(F)cc1 (centres undefined) | -5.1 | 0.461 µM [rising, single point] | 8.2 µM [falling, partial curve]
O=C(Nc1ccc(OC(F)(F)F)cc1)c1cnc2n(c1=O)CCS2 | 60.4 | 13 µM [rising, partial curve] | 13 µM [rising, partial curve]

Following part

SMILES | cell number change [%] | AC50 [1] | AC50 [2]
O=C(O)c1ccc(Cl)cc1NC(=O)C1CCCO1 (centres undefined) | -3.83 | – | 0.082 µM [falling, full curve, poor fit]
Cc1ccc(OCCCn2ccnc2)c(Br)c1 | -16 | – | 6.51 µM [falling, single point]
O=C1N(CN2CCN(c3cccc(Cl)c3)CC2)c2ccccc2C12OCCCO2 | 0.879 | – | 6.51 µM [falling, single point]
CCCNC(=O)COC(=O)CCC(=O)c1cccs1 | -45.2 | 32.6 µM [falling, single point] | –
COc1ccc(-c2csc(NC(=O)C3CSC4(C)CCC(=O)N34)n2)cc1 (centres undefined) | 25.2 | – | –
CC1S/C(=N/N=C2CCC(C(C)(C)C)CC2)NC1=O (centres undefined) | 19.7 | – | 10.3 µM [rising, partial curve, poor fit]
O=C(CSc1nc(NS(=O)(=O)c2ccccc2)cc(=O)[nH]1)Nc1ccc(Cl)cc1 | -29.3 | – | 16.4 µM [falling, single point]
O=C(COc1ccc(S(=O)(=O)N2CCOCC2)cc1)N1CCOCC1 | 2.68 | – | 1.64 µM [falling, partial curve]
Cn1c(=N)n(CC(=O)O)c2ccccc21 | -202 | 1.64 µM [falling, full curve] | 29.1 µM [falling, single point]
CCn1ncc([N+](=O)[O-])c1C(=O)N1CCc2ccccc2C1 | 18.4 | – | 0.112 µM [falling, full curve, poor fit]
CCOc1ccc(-c2c(C#N)c(N)nc3c2c(=O)n(C)c(=O)n3C)cc1OC | 4.97 | – | 5.8 µM [falling, single point]
COc1nc(C)cc(C)c1S(=O)(=O)c1ccccc1 | -31.7 | 4.61 µM [falling, full curve] | 6.51 µM [falling, single point]
CC1(C)Cc2c(C#N)c(SCCC#N)nc(N3CCOCC3)c2CS1 | – | – | 1.84 µM [rising, partial curve]
COc1ccc(CCNC(=O)c2cc(-c3ccc4c(c3)OCO4)on2)cc1OC | 26.8 | 0.0259 µM [rising, full curve, poor fit] | 0.0366 µM [rising, full curve, poor fit]
COC(=O)c1c(N2C(=O)CCC2=O)sc2c1CCCC2 | 5.35 | – | 6.51 µM [rising, single point]
NC(=O)N/N=C/c1ccc(-n2nncc2-c2ccc(Cl)cc2)cc1 | -2.14 | – | 20.6 µM [falling, partial curve]
COc1cc(CNCc2cccs2)cc(Br)c1OC | 59.3 | – | –
CC(C)(C)OC(=O)N1CCC(C(=O)N[C@@H](Cc2ccccc2)C(=O)O)CC1 | -33.6 | 1.03 µM [falling, full curve] | 1.46 µM [falling, full curve]
Cc1cccnc1NC(=O)C(C)N1C(=O)c2ccccc2C1=O (centres undefined) | 19.2 | – | 0.184 µM [rising, full curve, poor fit]
